# Experimental data reported in the supplement of paper PMC6411743.
# ± gives the standard deviation of the averaged measurements. The entries are a selection whose mix differs from that of the whole data set.
# Target: A0A0A0MT26|P13637 and related entries (UniProt P13637)
# Assay: NP40-soluble protein abundance relative to vehicle (solubility fold change) (ratio); higher = more soluble protein in presence of ATP
# Procedure, shortened: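 In three independent experiments, Jurkat crude lysate made by Dounce homogenisation was treated for 10 min at room temperature and then 3 min at 37 °C with eight concentrations ranging from 0.1 to 10 mM. It was then solubilised with 0.8% NP40 plus benzonase for 60 min at 4 °C and ultracentrifuged. The supernatant was TMT-labelled for LC-MS/MS, and each value is the fold change against the detergent-processed vehicle for the same replicate, using vsn-normalised intensities.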
smiles,measurement,setting,value
Nc1ncnc2c1ncn2[C@@H]1O[C@H](COP(=O)(O)OP(=O)(O)OP(=O)(O)O)[C@@H](O)[C@H]1O [adenosine triphosphate],NP40-soluble protein abundance,concentration: 1mM,1.02 ± 0.028
same,NP40-soluble protein abundance,concentration: 2mM,1 ± 0.028
same,NP40-soluble protein abundance,concentration: 4mM,0.984 ± 0.043
same,NP40-soluble protein abundance,concentration: 6mM,1.02 ± 0.013
same,NP40-soluble protein abundance,concentration: 8mM,0.976 ± 0.048
same,NP40-soluble protein abundance,concentration: 10mM,0.955 ± 0.051
